From the supplement of paper PMC10849652
The list shows a part of the results.

Chains of the proteins cited; added tags and fusions are not shown. Lines headed by an entry give the natural chain unless they say otherwise; changes in a name come on top.
UniProt P57772: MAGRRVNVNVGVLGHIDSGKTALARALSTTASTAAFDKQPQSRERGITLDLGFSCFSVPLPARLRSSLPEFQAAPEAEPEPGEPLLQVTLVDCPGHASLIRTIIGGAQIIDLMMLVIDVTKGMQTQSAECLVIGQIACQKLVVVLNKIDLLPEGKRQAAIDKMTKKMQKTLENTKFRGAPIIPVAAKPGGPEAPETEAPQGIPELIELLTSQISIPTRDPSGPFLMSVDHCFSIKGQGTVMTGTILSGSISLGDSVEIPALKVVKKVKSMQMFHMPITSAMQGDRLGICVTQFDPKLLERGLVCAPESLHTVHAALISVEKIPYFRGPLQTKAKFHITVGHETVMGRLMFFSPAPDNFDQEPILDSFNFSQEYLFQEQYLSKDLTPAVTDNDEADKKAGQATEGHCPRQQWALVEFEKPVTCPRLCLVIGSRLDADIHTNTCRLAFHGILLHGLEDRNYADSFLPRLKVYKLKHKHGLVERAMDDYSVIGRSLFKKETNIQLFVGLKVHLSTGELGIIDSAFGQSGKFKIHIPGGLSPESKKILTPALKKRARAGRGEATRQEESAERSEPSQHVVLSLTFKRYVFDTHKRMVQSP
UniProt Q15125: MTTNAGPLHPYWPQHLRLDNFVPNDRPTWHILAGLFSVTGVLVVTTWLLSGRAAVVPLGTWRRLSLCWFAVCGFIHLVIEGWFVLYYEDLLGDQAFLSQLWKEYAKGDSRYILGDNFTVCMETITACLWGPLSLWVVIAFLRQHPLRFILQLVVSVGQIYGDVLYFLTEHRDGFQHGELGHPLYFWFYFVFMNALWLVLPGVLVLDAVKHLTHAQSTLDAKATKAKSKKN
UniProt P42892: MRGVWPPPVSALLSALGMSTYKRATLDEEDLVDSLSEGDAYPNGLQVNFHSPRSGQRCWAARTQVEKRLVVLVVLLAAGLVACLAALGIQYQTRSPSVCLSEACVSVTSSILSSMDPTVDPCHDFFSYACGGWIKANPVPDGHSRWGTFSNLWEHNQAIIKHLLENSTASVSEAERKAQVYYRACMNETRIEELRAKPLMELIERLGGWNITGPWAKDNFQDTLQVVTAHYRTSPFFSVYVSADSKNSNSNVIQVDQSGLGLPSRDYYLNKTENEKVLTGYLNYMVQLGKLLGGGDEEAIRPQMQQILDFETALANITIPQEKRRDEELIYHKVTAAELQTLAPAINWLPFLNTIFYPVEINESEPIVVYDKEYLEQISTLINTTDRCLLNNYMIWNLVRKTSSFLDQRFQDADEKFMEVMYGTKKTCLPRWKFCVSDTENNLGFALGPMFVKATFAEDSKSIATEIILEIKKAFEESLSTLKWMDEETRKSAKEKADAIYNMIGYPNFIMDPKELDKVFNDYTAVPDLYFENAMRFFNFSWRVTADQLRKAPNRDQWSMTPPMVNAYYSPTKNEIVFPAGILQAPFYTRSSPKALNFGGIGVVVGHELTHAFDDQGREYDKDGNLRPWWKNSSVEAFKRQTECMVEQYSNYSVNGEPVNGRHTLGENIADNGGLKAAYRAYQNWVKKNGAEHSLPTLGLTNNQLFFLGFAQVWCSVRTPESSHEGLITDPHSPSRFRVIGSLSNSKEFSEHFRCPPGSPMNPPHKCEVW
UniProt O60869: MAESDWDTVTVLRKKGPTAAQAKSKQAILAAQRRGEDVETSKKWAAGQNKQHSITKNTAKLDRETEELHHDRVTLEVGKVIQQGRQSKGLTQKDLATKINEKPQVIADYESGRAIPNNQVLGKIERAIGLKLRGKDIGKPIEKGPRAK
UniProt Q96G46: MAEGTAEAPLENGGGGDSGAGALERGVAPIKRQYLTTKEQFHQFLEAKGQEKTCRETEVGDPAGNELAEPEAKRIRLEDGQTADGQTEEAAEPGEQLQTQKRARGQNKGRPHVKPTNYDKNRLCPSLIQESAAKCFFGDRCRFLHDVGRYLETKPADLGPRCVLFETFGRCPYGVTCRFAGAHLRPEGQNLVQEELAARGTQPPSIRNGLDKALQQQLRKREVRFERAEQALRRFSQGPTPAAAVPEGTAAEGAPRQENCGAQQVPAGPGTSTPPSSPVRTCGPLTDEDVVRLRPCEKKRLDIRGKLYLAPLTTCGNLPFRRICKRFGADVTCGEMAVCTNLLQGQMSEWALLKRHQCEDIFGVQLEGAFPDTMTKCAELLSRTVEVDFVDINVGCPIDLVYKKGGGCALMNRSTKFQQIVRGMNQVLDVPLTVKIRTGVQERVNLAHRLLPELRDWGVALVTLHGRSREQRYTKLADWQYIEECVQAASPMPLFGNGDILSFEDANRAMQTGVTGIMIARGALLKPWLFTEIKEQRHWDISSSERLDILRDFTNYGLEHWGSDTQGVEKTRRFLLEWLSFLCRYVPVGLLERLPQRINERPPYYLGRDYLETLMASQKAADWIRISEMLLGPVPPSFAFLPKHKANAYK
UniProt Q5VTE0, whole entry, looked up: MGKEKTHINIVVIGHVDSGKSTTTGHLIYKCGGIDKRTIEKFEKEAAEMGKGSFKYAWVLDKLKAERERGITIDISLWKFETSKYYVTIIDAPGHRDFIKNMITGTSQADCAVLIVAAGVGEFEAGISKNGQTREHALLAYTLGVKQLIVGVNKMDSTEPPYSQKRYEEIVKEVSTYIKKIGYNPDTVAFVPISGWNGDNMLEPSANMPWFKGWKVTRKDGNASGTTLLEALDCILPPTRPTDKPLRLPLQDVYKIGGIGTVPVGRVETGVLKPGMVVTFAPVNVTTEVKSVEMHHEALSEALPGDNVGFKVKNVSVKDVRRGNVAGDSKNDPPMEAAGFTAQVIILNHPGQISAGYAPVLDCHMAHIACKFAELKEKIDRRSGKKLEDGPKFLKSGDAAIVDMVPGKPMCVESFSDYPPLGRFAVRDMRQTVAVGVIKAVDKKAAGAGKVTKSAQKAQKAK
UniProt Q14126: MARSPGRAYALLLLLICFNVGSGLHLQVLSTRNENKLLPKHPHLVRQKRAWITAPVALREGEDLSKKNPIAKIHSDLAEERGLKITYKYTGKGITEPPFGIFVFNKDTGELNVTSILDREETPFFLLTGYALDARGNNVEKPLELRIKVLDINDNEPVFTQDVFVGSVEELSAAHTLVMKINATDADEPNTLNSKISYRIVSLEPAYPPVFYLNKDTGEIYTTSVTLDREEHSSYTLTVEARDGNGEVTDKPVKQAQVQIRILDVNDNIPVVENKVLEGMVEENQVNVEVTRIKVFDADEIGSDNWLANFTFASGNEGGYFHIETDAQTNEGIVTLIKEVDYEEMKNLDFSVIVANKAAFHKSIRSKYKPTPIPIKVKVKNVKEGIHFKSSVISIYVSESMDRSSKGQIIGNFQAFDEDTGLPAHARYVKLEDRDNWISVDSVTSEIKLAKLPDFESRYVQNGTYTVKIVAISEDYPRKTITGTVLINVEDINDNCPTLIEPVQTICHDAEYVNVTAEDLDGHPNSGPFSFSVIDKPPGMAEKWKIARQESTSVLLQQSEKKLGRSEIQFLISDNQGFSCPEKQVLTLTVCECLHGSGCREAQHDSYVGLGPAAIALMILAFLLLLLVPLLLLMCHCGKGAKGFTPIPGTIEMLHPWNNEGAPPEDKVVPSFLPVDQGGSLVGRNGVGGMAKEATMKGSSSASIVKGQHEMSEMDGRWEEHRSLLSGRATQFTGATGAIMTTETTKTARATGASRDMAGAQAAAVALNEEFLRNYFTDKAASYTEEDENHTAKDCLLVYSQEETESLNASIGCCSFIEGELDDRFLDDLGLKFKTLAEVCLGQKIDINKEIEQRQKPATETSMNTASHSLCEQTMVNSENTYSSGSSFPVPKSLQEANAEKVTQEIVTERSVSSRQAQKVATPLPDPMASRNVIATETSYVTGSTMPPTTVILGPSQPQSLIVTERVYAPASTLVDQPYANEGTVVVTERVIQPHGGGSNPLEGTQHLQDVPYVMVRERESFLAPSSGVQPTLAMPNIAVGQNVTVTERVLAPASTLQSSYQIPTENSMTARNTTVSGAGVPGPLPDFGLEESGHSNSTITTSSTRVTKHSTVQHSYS
UniProt O60762: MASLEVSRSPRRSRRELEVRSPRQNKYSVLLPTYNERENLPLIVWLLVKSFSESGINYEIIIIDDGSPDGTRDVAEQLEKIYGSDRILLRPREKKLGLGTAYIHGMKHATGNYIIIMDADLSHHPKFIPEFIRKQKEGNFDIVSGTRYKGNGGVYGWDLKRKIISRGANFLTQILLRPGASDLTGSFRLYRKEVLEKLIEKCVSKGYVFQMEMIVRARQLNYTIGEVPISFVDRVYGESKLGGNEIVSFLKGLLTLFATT
UniProt P47813, whole entry, looked up: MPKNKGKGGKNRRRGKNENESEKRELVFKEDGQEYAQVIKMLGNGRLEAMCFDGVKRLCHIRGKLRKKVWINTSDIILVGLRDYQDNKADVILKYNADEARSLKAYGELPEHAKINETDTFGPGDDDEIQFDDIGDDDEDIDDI
UniProt Q9H2P9: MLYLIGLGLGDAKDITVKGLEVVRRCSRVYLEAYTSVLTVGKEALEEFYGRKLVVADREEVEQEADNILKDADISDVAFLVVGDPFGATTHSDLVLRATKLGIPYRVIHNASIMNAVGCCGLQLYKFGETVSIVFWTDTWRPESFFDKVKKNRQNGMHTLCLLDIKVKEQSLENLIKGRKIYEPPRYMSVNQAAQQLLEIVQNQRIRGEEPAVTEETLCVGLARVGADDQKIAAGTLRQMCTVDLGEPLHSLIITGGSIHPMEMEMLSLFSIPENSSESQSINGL
UniProt Q5JPH6: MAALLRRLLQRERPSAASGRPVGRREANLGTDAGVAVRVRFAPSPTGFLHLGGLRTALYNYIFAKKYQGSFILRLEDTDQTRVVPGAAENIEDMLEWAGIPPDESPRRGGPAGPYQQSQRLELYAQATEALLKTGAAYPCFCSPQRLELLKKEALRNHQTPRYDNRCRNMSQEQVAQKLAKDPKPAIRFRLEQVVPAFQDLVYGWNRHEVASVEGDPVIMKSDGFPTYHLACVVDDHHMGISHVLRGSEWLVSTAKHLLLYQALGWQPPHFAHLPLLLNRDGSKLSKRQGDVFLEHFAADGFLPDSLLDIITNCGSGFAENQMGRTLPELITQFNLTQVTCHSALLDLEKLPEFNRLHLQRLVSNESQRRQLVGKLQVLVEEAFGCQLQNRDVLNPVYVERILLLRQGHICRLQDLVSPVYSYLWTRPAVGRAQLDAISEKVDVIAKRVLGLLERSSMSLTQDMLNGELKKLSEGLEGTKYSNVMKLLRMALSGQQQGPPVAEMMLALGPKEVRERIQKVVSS
UniProt O00716: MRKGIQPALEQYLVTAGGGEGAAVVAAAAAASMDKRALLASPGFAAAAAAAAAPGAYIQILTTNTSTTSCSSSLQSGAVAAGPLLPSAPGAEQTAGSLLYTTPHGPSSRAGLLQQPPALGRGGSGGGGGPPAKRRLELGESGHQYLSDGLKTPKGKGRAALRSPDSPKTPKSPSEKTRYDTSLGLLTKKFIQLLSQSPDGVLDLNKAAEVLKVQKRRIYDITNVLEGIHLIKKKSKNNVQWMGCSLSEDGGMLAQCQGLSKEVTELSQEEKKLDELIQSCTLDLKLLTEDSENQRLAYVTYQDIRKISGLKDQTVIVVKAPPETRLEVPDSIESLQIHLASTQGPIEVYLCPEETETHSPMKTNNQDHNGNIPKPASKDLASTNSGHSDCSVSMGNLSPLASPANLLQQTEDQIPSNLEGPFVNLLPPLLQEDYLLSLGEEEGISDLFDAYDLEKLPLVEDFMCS

Legend:
Assay in all cases: log2 fold change, soluble protein after heating vs DMSO (PISA); higher = thermal stabilisation; K562 lysate, 10 uM; active = over 0.2 and 3.5 SD of the protein, either way, in both replicates (recomputed)
lapatinib = compound: CS(=O)(=O)CCNCc1ccc(-c2ccc3ncnc(Nc4ccc(OCc5cccc(F)c5)c(Cl)c4)c3c2)o1 [lapatinib]
Procedure, shortened: (§1)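 Log-two fold change in thermal stability relative to solvent controls is reported from duplicates. For each sample, crude K562 extract from dounce-homogenised pellets in PBS pH 7.4 with 1 mM MgCl2, at 1 mg/mL protein, was treated with 10 μM compound for 30 min. Aliquots heated for 3 min across 48°C-58°C were pooled, brought to 0.5% NP-40 at 4°C and cleared at 21,000xg for 90 min. The supernatant was quantified by TMTpro 16plex LC-MS/MS with channel sums equalised.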

pictilisib = compound: CS(=O)(=O)N1CCN(Cc2cc3nc(-c4cccc5[nH]ncc45)nc(N4CCOCC4)c3s2)CC1 [pictilisib]
Procedure, shortened: as §1

crizotinib = compound: C[C@@H](Oc1cc(-c2cnn(C3CCNCC3)c2)cnc1N)c1c(Cl)ccc(F)c1Cl [crizotinib]
Procedure, shortened: as §1

[1] = compound: C[C@H](C1=CC=C(C=C1)C(=O)NC2=C3C=CNC3=NC=C2)N
Procedure, shortened: as §1

duvelisib = compound: C[C@H](Nc1ncnc2nc[nH]c12)c1cc2cccc(Cl)c2c(=O)n1-c1ccccc1 [duvelisib]
Procedure, shortened: as §1

gandotinib = compound: Cc1cc(Nc2cc(CN3CCOCC3)c3nc(C)c(Cc4ccc(Cl)cc4F)n3n2)n[nH]1 [gandotinib]
Procedure, shortened: as §1

tozasertib = compound: Cc1cc(Nc2cc(N3CCN(C)CC3)nc(Sc3ccc(NC(=O)C4CC4)cc3)n2)n[nH]1 [tozasertib]
Procedure, shortened: as §1

doramapimod = compound: Cc1ccc(-n2nc(C(C)(C)C)cc2NC(=O)Nc2ccc(OCCN3CCOCC3)c3ccccc23)cc1 [doramapimod]
Procedure, shortened: as §1

bafetinib = compound: Cc1ccc(NC(=O)c2ccc(CN3CC[C@H](N(C)C)C3)c(C(F)(F)F)c2)cc1Nc1nccc(-c2cncnc2)n1 [bafetinib]
Procedure, shortened: as §1

[2] = compound: Cc1cccc(CC(=O)N2CCc3c2ccc(-c2cn(C)c4ncnc(N)c24)c3F)n1
Procedure, shortened: as §1

nilotinib = compound: Cc1cn(-c2cc(NC(=O)c3ccc(C)c(Nc4nccc(-c5cccnc5)n4)c3)cc(C(F)(F)F)c2)cn1 [nilotinib]
Procedure, shortened: as §1

[3] = compound: Cc1nc(Nc2n[nH]c3c2CN(C(=O)N[C@H](CN(C)C)c2ccccc2)C3(C)C)c2sccc2n1
Procedure, shortened: as §1

dasatinib = compound: Cc1nc(Nc2ncc(C(=O)Nc3c(C)cccc3Cl)s2)cc(N2CCN(CCO)CC2)n1 [dasatinib]
Procedure, shortened: as §1

[4] = compound: Cc1ncc(-c2ccnc(Nc3ccc(S(C)(=O)=O)cc3)n2)n1C(C)C
Procedure, shortened: as §1

[5] = compound: Cn1cc(-c2ccc3c(c2)CCN3C(=O)Cc2cccc(C(F)(F)F)c2)c2c(N)ncnc21
Procedure, shortened: as §1

quisinostat = compound: Cn1cc(CNCC2CCN(c3ncc(C(=O)NO)cn3)CC2)c2ccccc21 [quisinostat]
Procedure, shortened: as §1

tipifarnib = compound: Cn1cncc1[C@@](N)(c1ccc(Cl)cc1)c1ccc2c(c1)c(-c1cccc(Cl)c1)cc(=O)n2C [tipifarnib]
Procedure, shortened: as §1

[6] = compound: NC(=O)Nc1cc(-c2cccc(F)c2)sc1C(=O)N[C@H]1CCCNC1
Procedure, shortened: as §1

[7] = compound: NC(=O)c1cnc(N[C@@H]2CCCC[C@@H]2N)nc1Nc1cccc(-n2nccn2)c1
Procedure, shortened: as §1

[8] = compound: NC1(c2ccc(-c3nc4ccn5c(=O)[nH]nc5c4cc3-c3ccccc3)cc2)CCC1
Procedure, shortened: as §1

Row | Target | log2 fold change (lapatinib) | log2 fold change (pictilisib) | log2 fold change (crizotinib) | log2 fold change [1] | log2 fold change (duvelisib) | log2 fold change (gandotinib) | log2 fold change (tozasertib) | log2 fold change (doramapimod) | log2 fold change (bafetinib) | log2 fold change [2] | log2 fold change (nilotinib) | log2 fold change [3] | log2 fold change (dasatinib) | log2 fold change [4] | log2 fold change [5] | log2 fold change (quisinostat) | log2 fold change (tipifarnib) | log2 fold change [6] | log2 fold change [7] | log2 fold change [8]
1 | EEFSEC (UniProt P57772) | inactive: -0.019 | inactive: 0.008 | inactive: -0.042 | inactive: -0.043 | inactive: 0.031 | inactive: -0.023 | inactive: 0.024 | inactive: 0.022 | inactive: -0.079 | inactive: 0.041 | inactive: 0.004 | inactive: 0.01 | inactive: -0.067 | inactive: -0.03 | inactive: 0.007 | inactive: -0.043 | inactive: -0.003 | inactive: 0.052 | inactive: 0 | inactive: -0.019
2 | DPP7 (UniProt Q9UHL4) | inactive: 0.013 | inactive: -0.033 | inactive: 0.008 | inactive: 0.009 | inactive: 0.021 | inactive: -0.011 | inactive: -0.032 | inactive: -0.023 | inactive: -0.011 | inactive: 0.093 | inactive: -0.001 | inactive: -0.035 | inactive: 0.018 | inactive: -0.096 | inactive: 0.013 | inactive: -0.038 | inactive: 0.02 | inactive: 0.002 | inactive: -0.025 | inactive: -0.017
3 | EHMT2 (UniProt A2ABF8) | inactive: -0.018 | inactive: -0.029 | inactive: -0.092 | inactive: -0.017 | inactive: -0.017 | inactive: -0.007 | inactive: 0.02 | inactive: 0.008 | inactive: -0.044 | inactive: 0.023 | inactive: -0.014 | inactive: -0.008 | inactive: 0 | inactive: -0.026 | inactive: 0.004 | inactive: -0.084 | inactive: 0.012 | inactive: 0.033 | inactive: -0.026 | inactive: 0.041
4 | EED, A0A5F9ZI63 | inactive: 0.047 | inactive: -0.014 | inactive: -0.001 | inactive: -0.041 | inactive: -0.006 | inactive: 0.022 | inactive: -0.01 | inactive: 0.006 | inactive: 0.033 | inactive: 0.076 | inactive: -0.019 | inactive: 0.035 | inactive: -0.022 | inactive: -0.005 | inactive: -0.027 | inactive: 0 | inactive: 0.006 | inactive: 0.026 | inactive: -0.006 | inactive: -0.015
5 | EBP (UniProt Q15125) | inactive: -0.044 | inactive: -0.004 | inactive: 0.07 | active: -0.269 | inactive: -0.093 | inactive: 0.1 | inactive: -0.016 | inactive: -0.127 | inactive: -0.011 | inactive: 0 | inactive: 0.081 | inactive: -0.016 | inactive: -0.05 | inactive: 0.018 | inactive: -0.137 | inactive: 0.038 | inactive: -0.03 | inactive: 0.042 | inactive: -0.006 | inactive: -0.05
6 | ECE1 (UniProt P42892) | inactive: 0.002 | inactive: -0.053 | inactive: 0.005 | inactive: -0.009 | inactive: 0.025 | inactive: 0 | inactive: -0.028 | inactive: -0.025 | inactive: -0.039 | inactive: 0.064 | inactive: -0.003 | inactive: 0.019 | inactive: -0.002 | inactive: 0.012 | inactive: -0.013 | inactive: 0.061 | inactive: 0.034 | inactive: -0.049 | inactive: 0.012 | inactive: -0.058
7 | EDF1 (UniProt O60869) | inactive: -0.04 | inactive: -0.017 | inactive: 0.044 | inactive: -0.033 | inactive: 0.066 | inactive: 0.078 | inactive: -0.017 | inactive: -0.063 | inactive: -0.02 | inactive: 0.019 | inactive: -0.005 | inactive: -0.012 | inactive: 0.02 | inactive: -0.01 | inactive: -0.072 | inactive: 0.007 | inactive: -0.015 | inactive: -0.023 | inactive: -0.054 | inactive: 0.012
8 | DUS3L (UniProt Q96G46) | inactive: -0.009 | inactive: -0.02 | inactive: -0.027 | inactive: 0.202 | inactive: -0.022 | inactive: -0.081 | inactive: 0.009 | inactive: -0.018 | inactive: 0.093 | inactive: -0.097 | inactive: 0.008 | inactive: -0.022 | inactive: -0.019 | inactive: -0.014 | inactive: 0.004 | inactive: -0.098 | inactive: -0.017 | inactive: 0.026 | inactive: 0 | inactive: -0.021
9 | EEF1A1P5 (UniProt Q5VTE0) | inactive: -0.006 | inactive: 0.027 | inactive: -0.026 | inactive: -0.114 | inactive: -0.098 | inactive: 0.044 | inactive: -0.001 | inactive: 0.011 | inactive: -0.017 | inactive: 0.117 | inactive: -0.055 | inactive: 0.005 | inactive: -0.172 | inactive: -0.083 | inactive: 0.005 | inactive: -0.054 | inactive: 0.008 | inactive: 0.016 | inactive: 0.006 | inactive: -0.013
10 | DPYSL2 (UniProt Q16555) | inactive: -0.021 | inactive: -0.011 | inactive: 0.018 | inactive: -0.044 | inactive: 0.013 | inactive: 0.076 | inactive: -0.045 | inactive: 0.022 | inactive: -0.003 | inactive: 0.046 | inactive: 0.004 | inactive: 0.068 | inactive: 0.025 | inactive: 0.049 | inactive: -0.039 | inactive: -0.007 | inactive: 0.048 | inactive: -0.011 | inactive: 0.007 | inactive: -0.035
11 | DSG2 (UniProt Q14126) | inactive: 0.023 | inactive: -0.016 | inactive: 0.007 | inactive: 0.015 | inactive: -0.019 | inactive: 0.007 | inactive: -0.005 | inactive: 0.015 | inactive: 0.035 | inactive: -0.017 | inactive: -0.016 | inactive: -0.009 | inactive: 0.074 | inactive: -0.028 | inactive: 0.045 | inactive: -0.02 | inactive: -0.035 | inactive: 0.034 | inactive: 0.089 | inactive: 0.006
12 | DPM1 (UniProt O60762) | inactive: -0.003 | inactive: 0.009 | inactive: 0.009 | inactive: 0.028 | inactive: -0.018 | inactive: -0.097 | inactive: -0.014 | inactive: -0.046 | inactive: -0.061 | inactive: 0.061 | inactive: 0.013 | inactive: 0.019 | inactive: 0.028 | inactive: -0.014 | inactive: 0.044 | inactive: 0.057 | inactive: 0.03 | inactive: 0.038 | inactive: 0.019 | inactive: -0.057
13 | EIF1AX (UniProt P47813) | inactive: 0.122 | inactive: 0.052 | inactive: 0.006 | inactive: 0.008 | inactive: -0.031 | inactive: -0.028 | inactive: -0.019 | inactive: -0.033 | inactive: 0.107 | inactive: -0.026 | inactive: 0.041 | inactive: 0.103 | inactive: 0.042 | inactive: 0.04 | inactive: -0.042 | inactive: 0.103 | inactive: -0.042 | inactive: -0.064 | inactive: 0.004 | inactive: -0.005
14 | DPH5 isoform 5 (UniProt Q9H2P9) | inactive: 0.009 | inactive: 0.025 | inactive: 0.126 | inactive: -0.019 | inactive: 0.128 | active: 0.495 | inactive: 0.005 | inactive: -0.024 | inactive: 0.143 | inactive: 0.101 | inactive: -0.01 | inactive: 0.289 | active: 0.418 | inactive: 0.009 | inactive: 0.062 | inactive: 0.003 | inactive: 0.017 | inactive: -0.048 | inactive: -0.025 | active: 0.377
15 | EARS2 (UniProt Q5JPH6) | inactive: -0.04 | inactive: -0.084 | inactive: -0.026 | inactive: -0.023 | inactive: 0.037 | inactive: 0.043 | inactive: 0.127 | inactive: 0.004 | inactive: -0.006 | inactive: 0.115 | inactive: -0.043 | inactive: -0.023 | inactive: -0.09 | inactive: 0.014 | inactive: 0.045 | inactive: -0.019 | inactive: -0.084 | inactive: 0.058 | inactive: -0.055 | inactive: -0.025
16 | E2F3 (UniProt O00716) | inactive: 0.048 | inactive: 0.048 | inactive: -0.109 | inactive: 0 | inactive: 0.099 | inactive: 0.088 | inactive: 0.085 | inactive: 0.04 | inactive: -0.098 | inactive: 0.076 | inactive: -0.007 | inactive: -0.201 | inactive: 0.001 | inactive: 0.116 | inactive: 0.039 | inactive: 0.015 | inactive: 0 | inactive: 0.007 | inactive: 0.025 | inactive: -0.027

Some of the entries so far, in CSV form:
Row,Target,log2 fold change (lapatinib),log2 fold change (pictilisib),log2 fold change (crizotinib),log2 fold change [1],log2 fold change (duvelisib),log2 fold change (gandotinib),log2 fold change (tozasertib),log2 fold change (doramapimod),log2 fold change (bafetinib),log2 fold change [2],log2 fold change (nilotinib),log2 fold change [3],log2 fold change (dasatinib),log2 fold change [4],log2 fold change [5],log2 fold change (quisinostat),log2 fold change (tipifarnib),log2 fold change [6],log2 fold change [7],log2 fold change [8]
3,EHMT2 (UniProt A2ABF8),inactive: -0.018,inactive: -0.029,inactive: -0.092,inactive: -0.017,inactive: -0.017,inactive: -0.007,inactive: 0.02,inactive: 0.008,inactive: -0.044,inactive: 0.023,inactive: -0.014,inactive: -0.008,inactive: 0,inactive: -0.026,inactive: 0.004,inactive: -0.084,inactive: 0.012,inactive: 0.033,inactive: -0.026,inactive: 0.041
4,"EED, A0A5F9ZI63",inactive: 0.047,inactive: -0.014,inactive: -0.001,inactive: -0.041,inactive: -0.006,inactive: 0.022,inactive: -0.01,inactive: 0.006,inactive: 0.033,inactive: 0.076,inactive: -0.019,inactive: 0.035,inactive: -0.022,inactive: -0.005,inactive: -0.027,inactive: 0,inactive: 0.006,inactive: 0.026,inactive: -0.006,inactive: -0.015
